Assay results: US12485107B2, “Methods for the prevention or treatment of cytokine storm” (Beth Israel Deaconess Medical Center, Inc., priority 2019, dated 2025)
Some results were stated once for a whole list of compounds, not compound by compound.

Tested on: OVCAR5 human epithelial ovarian carcinoma cells
Experiment: Annexin V/propidium iodide flow cytometry of chemotherapy-treated OVCAR5 cells
Format: cell-based
Settings: annexin V/PI; carboplatin 100 μM 72 hours, paclitaxel 1 μM 48 hours

SMILES: CC(=O)O[C@H]1C(=O)[C@@]2(C)[C@H]([C@H](OC(=O)c3ccccc3)[C@]3(O)C[C@H](OC(=O)[C@H](O)[C@@H](NC(=O)c4ccccc4)c4ccccc4)C(C)=C1C3(C)C)[C@]1(OC(C)=O)CO[C@@H]1C[C@@H]2O [paclitaxel]
- increase of death rate in OVCAR5 cells compared to vehicle-treated controls: 3-4 fold
